Binding data for ten substances are collected here from article PMC7718735.

Where a chain is given by its changes, count along the chain named. Results are given in words; binding and its absence hold for the method and conditions named. A result given as binding can be weak or reduced; the word gives no strength.

For experiment [1], the target named is T1, Cut11 L521F MYTH bait (S. pombe) (UniProt O13961).
T1 sequence: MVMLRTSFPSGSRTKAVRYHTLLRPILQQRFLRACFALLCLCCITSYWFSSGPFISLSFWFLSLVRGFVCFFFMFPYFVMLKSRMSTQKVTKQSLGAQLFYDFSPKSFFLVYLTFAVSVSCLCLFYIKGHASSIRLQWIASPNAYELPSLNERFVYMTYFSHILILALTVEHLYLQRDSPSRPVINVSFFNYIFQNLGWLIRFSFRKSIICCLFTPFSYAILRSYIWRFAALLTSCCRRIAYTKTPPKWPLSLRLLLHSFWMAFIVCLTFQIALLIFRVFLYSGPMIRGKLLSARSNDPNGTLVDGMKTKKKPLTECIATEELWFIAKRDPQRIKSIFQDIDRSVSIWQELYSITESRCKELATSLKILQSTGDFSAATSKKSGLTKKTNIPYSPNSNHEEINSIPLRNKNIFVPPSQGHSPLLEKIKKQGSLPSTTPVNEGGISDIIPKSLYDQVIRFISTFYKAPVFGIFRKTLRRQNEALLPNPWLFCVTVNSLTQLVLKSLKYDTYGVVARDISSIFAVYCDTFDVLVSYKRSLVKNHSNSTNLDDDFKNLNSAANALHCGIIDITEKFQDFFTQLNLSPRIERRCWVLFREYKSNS
As to the kind of experiment: two-hybrid; split-ubiquitin membrane yeast two-hybrid (MYTH) in S. cerevisiae; bait-Cub-LexA-VP16 strains mated with the arrayed Nub prey library, diploids spotted in quadruplicate on SD-leu-trp-ade-his with 25 mM 3-AT, imaged every 24 hr for 4 days; positive by a colony density cutoff.

The target of experiment [2] is T2, Cut11 MYTH bait (wild type) (S. pombe) (UniProt O13961).
T2 sequence: T1 sequence with F521L
Described as above.

Experiment [3] deals with T3, Lem2 MYTH bait (S. pombe) (UniProt Q10109).
T3 sequence: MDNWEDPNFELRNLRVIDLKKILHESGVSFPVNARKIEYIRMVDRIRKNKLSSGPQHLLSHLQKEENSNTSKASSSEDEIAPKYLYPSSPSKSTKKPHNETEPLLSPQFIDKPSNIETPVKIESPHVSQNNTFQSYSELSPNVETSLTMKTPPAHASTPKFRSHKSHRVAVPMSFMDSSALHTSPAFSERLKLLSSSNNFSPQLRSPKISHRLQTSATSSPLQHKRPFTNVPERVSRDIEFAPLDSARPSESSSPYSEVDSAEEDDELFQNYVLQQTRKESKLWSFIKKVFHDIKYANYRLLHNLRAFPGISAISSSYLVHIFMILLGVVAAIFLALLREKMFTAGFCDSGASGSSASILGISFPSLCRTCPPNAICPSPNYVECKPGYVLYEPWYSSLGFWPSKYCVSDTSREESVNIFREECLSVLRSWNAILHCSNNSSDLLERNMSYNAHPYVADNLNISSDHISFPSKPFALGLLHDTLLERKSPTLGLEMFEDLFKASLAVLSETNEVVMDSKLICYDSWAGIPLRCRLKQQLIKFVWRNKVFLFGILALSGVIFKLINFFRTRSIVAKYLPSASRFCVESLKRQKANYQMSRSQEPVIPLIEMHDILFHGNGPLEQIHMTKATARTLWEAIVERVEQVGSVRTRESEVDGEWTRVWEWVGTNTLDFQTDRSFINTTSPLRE
Described as above.

The target in experiment [4] is T4, Ima1 MYTH bait (S. pombe) (UniProt O13681).
T4 sequence: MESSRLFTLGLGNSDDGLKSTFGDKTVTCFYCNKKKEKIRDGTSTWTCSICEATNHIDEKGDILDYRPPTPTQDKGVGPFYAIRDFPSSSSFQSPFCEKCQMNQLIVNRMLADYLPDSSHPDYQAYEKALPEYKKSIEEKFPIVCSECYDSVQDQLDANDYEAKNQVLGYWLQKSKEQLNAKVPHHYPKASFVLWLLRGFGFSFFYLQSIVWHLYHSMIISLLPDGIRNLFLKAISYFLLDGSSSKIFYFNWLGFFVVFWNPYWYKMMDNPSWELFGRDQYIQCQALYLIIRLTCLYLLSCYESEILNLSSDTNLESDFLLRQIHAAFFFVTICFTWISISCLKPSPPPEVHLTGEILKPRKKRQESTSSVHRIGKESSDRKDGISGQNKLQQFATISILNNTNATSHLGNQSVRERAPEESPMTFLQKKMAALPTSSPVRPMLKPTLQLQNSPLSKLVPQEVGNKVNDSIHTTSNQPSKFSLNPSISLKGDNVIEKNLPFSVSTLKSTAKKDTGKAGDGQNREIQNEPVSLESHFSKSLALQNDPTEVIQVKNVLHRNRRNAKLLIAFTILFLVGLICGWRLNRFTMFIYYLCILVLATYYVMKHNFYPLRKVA
The experiment is described as above.

Experiment [5] concerns the target T4, Ima1 MYTH bait (S. pombe). As to the kind of experiment: two-hybrid; MYTH confirmation: bait and prey plasmids sequentially transformed into the haploid reporter strain SLJ5572; ten-fold dilution series on SD-leu-trp-ade-his + 25 mM 3-AT at 30°.

In the case of Csi2 MYTH prey (S. pombe), the binding result in experiment [1] and in experiment [2] was “binds” throughout.

Consider Dms1 MYTH prey (S. pombe), for which, in experiment [2], the binding entry is listed as “binds”.

Nup37 MYTH prey (S. pombe): the binding entry in experiment [3], in experiment [1] and in experiment [2] was “binds” throughout.

As for Nur1 MYTH prey (S. pombe), in experiment [3], the binding result is given as “binds”.

With Pet1 MYTH prey (S. pombe), the binding result in experiment [3] is “binds weakly”.

With Pom34 MYTH prey (S. pombe), the binding entry in experiment [3], in experiment [1], in experiment [4] and in experiment [2] was “binds” throughout.

For the substance SPAP14D8.05c MYTH prey (S. pombe), the binding entry in experiment [4] is given as “binds”.

Turning to Sei1 MYTH prey (S. pombe), the binding result in experiment [5] and in experiment [4] was “binds” in each case.

As for Stc1 MYTH prey (S. pombe), in experiment [3], the binding result is on record as “no binding”.

As to Tom13 MYTH prey (S. pombe), in experiment [3], the binding result is reported as “binds weakly”.
